This note sets out measurements from doi:10.1101/2020.12.09.418798.

Protein sequences, listed by entry. Tags and fused reporters are not part of them.
UniProt Q8RY59: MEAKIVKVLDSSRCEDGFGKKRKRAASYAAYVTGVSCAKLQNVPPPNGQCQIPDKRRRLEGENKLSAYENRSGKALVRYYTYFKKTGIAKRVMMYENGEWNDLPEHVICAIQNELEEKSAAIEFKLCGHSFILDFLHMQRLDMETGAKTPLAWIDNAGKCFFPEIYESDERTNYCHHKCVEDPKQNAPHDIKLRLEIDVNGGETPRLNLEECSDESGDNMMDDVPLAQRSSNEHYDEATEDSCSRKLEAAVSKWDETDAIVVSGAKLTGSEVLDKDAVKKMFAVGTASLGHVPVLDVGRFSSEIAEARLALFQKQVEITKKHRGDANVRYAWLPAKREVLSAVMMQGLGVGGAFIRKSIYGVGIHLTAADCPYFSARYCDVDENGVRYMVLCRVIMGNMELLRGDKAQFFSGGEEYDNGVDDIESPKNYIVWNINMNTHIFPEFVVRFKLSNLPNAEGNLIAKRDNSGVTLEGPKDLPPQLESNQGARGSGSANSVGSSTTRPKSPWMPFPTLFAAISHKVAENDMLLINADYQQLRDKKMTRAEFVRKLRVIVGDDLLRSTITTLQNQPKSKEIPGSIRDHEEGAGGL

These are yes or no findings as the source states them, for the method shown. Binding seen in cells or lysates may run through a third protein. Some results given as binding are weak or reduced against the parent protein; the word gives no strength. Tags and fused reporters may be left off the sequences shown.

Test [1] addresses RADICAL-INDUCED CELL DEATH1 (RCD1), cYFP fusion (Arabidopsis) (UniProt Q8RY59). The test is described as follows: split reporter.
For test [2], the target named is T1, SIMILAR TO RCD-ONE 1 (SRO1), cYFP fusion (Arabidopsis) (UniProt O82289).
T1 sequence: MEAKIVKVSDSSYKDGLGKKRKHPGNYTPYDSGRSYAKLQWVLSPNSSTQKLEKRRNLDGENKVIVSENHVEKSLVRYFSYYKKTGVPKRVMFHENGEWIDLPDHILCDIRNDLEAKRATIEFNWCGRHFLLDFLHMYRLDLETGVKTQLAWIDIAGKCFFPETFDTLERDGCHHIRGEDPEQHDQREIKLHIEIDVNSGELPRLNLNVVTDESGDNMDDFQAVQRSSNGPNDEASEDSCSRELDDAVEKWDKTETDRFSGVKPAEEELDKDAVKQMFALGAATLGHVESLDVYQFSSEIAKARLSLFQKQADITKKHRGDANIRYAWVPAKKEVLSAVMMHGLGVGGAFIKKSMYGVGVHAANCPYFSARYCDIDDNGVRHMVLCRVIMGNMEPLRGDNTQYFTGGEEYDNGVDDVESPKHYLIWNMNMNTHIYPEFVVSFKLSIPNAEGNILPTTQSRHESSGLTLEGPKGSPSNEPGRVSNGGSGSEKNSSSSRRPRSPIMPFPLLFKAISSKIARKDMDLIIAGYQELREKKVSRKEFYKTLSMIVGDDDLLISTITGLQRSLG
The test is described as follows: split reporter.

B1: Dehydration-Responsive Element-Binding Protein 2B (DREB2B), nYFP fusion (protein, UniProt O82133 1-330)
chain: MAVYEQTGTEQPKKRKSRARAGGLTVADRLKKWKEYNEIVEASAVKEGEKPKRKVPAKGSKKGCMKGKGGPDNSHCSFRGVRQRIWGKWVAEIREPKIGTRLWLGTFPTAEKAASAYDEAATAMYGSLARLNFPQSVGSEFTSTSSQSEVCTVENKAVVCGDVCVKHEDTDCESNPFSQILDVREESCGTRPDSCTVGHQDMNSSLNYDLLLEFEQQYWGQVLQEKEKPKQEEEEIQQQQQEQQQQQLQPDLLTVADYGWPWSNDIVNDQTSWDPNECFDINELLGDLNEPGPHQSQDQNHVNSGSYDLHPLHLEPHDGHEFNGLSSLDI
Regarding B1, the binding result in test [1] and in test [2] was “binds” each time.
